Data: publication PMC6970084
No constants are given. Whether binding was seen depends on the method and setting. In cells and extracts the contact can be indirect. Some entries that bind do so weakly or less than the wild type.

Sequences of proteins named here, by UniProt entry; tags and fusion partners are left off.
UniProt P78362: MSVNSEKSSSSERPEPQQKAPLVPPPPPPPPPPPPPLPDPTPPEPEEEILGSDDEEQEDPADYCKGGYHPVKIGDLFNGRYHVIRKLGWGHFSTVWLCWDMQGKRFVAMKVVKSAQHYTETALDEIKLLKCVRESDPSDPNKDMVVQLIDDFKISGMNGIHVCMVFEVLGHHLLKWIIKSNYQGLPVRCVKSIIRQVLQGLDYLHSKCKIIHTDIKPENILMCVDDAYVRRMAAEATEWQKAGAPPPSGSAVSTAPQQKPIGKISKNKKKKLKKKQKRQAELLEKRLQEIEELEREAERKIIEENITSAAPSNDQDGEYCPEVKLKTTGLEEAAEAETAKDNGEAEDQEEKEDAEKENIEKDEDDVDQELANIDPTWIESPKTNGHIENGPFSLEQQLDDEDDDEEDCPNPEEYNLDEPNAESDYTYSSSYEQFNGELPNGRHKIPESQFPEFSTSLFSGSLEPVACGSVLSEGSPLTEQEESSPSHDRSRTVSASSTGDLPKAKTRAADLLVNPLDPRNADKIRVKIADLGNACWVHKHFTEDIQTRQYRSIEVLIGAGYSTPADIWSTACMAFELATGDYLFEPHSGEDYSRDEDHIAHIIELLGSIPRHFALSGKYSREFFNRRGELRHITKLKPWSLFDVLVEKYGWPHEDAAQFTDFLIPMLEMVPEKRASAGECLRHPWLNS

Biological target: Serine-arginine protein kinase 2 (human (endogenous in HCT116)) (UniProt P78362)
Assay: co-IP; endogenous proteins of HCT116 cells, without or with 5-fluorouracil at its IC50; precipitated with SRPK2, Numb or p53 antibody, control IgG as negative control; blotted; procedure as in ref. 15

- binding: binds
B1: Numb (protein, UniProt P49757 1-651)
chain: MNKLRQSFRRKKDVYVPEASRPHQWQTDEEGVRTGKCSFPVKYLGHVEVDESRGMHICEDAVKRLKAERKFFKGFFGKTGKKAVKAVLWVSADGLRVVDEKTKDLIVDQTIEKVSFCAPDRNFDRAFSYICRDGTTRRWICHCFMAVKDTGERLSHAVGCAFAACLERKQKREKECGVTATFDASRTTFTREGSFRVTTATEQAEREEIMKQMQDAKKAETDKIVVGSSVAPGNTAPSPSSPTSPTSDATTSLEMNNPHAIPRRHAPIEQLARQGSFRGFPALSQKMSPFKRQLSLRINELPSTMQRKTDFPIKNAVPEVEGEAESISSLCSQITNAFSTPEDPFSSAPMTKPVTVVAPQSPTFQANGTDSAFHVLAKPAHTALAPVAMPVRETNPWAHAPDAANKEIAATCSGTEWGQSSGAASPGLFQAGHRRTPSEADRWLEEVSKSVRAQQPQASAAPLQPVLQPPPPTAISQPASPFQGNAFLTSQPVPVGVVPALQPAFVPAQSYPVANGMPYPAPNVPVVGITPSQMVANVFGTAGHPQAAHPHQSPSLVRQQTFPHYEASSATTSPFFKPPAQHLNGSAAFNGVDDGRLASADRHTEVPTGTCPVDPFEAQWAALENKSKQRTNPSPTNPFSSDLQKTFEIEL
